The record followed here is publication PMC5996148.

Some test systems named below: LYPLAL1 (human); LYSMD2 (human); LYZL6 (human); LZIC (human); Leiomodin-1 (human).
Common to all, as to assay: protein microarray (ProtoArray v5.0), streptavidin-Alexa Fluor 647
Holding throughout (conditions): 3'-biotin; 20 mM Tris (pH 7.5), 5 mM MgCl2, 100 mM KCl, 0.1% Tween-20, A/T-rich and random oligonucleotide blockers; temperature not stated; high values mean tight binding

Test [1] deals with Lactation elevated protein 1 (human).
Test [2] relates to Lactoylglutathione lyase (human).
The test system of test [3] is Leptin receptor gene-related protein (human).
Test [4] deals with Leucine carboxyl methyltransferase 1 (human).
For test [5], the system named is Leukemia-associated protein 1 (human).

Some of the results follow.

In the case of “GGGGACAGGGGTATGGGGAGGGG [G4-3 biotinylated (CtG)]”, the binding signal in the test with LYPLAL1 (human) is -0.328 z-score; in the test with LYSMD2 (human), -0.337 z-score; in the test with LYZL6 (human), -0.336 z-score; in the test on LZIC (human), -0.338 z-score; in [1], -0.323 z-score; in test [2] it was -0.301 z-score. The binding signal in the test with Leiomodin-1 (human) is 3.3 z-score; in [3] it was -0.328 z-score; in test [4], -0.327 z-score; in test [5], -0.306 z-score.
